The values below come from the supplement of paper PMC8256030.

Counter-ions that a name gives are not always drawn. The list shows a part of the results. Single values are uncertain here, since repeats match poorly.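 HEK293T cells were given each compound shortly before transfection with a reporter in which red mCherry is followed by the SARS-CoV-2 frameshift element and then GFP in the −1 frame, so GFP appears only after frameshifting.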

In this assay the test system is HEK293T. Description: percent viability (nuclei count) relative to control; higher = more viable cells. The note with it: 10 µM; 24 h.
For `CCCCCOC(=O)c1ccc(N(C)C)cc1` [padimate], the percent viability came to 278%.
As for `Cc1ccc(S(=O)(=O)NC(=O)NC2CCCCC2)cc1N` [metahexamide], the figure is 118%; as for `CCCCCN(CCCOC)C(=O)C(CCC(=O)O)NC(=O)c1ccc(Cl)c(Cl)c1` (stereo unspecified) [loxiglumide], 139%.
In the case of `Cc1c(OCC(F)(F)F)ccnc1C[S@@+]([O-])c1nc2ccccc2[nH]1` [dexlansoprazole], the percent viability was found to be 35.9%.
On to `CC[C@]1(O)C[C@H]2CN(CCc3c([nH]c4ccccc34)[C@@](C(=O)OC)(c3cc4c(cc3OC)N(C=O)[C@H]3[C@@](O)(C(=O)OC)[C@H](OC(C)=O)[C@]5(CC)C=CCN6CC[C@]43[C@@H]65)C2)C1` [Vincristine sulfate], for which the percent viability was 24.4%.
For the compound `CN1CCN(C2=Nc3cc(Cl)ccc3Nc3ccccc32)CC1` [clozapine], the percent viability was 250%.
